In assay [1] the target is human type α platelet derived growth factor receptor (T11 gene product) (human) (UniProt P16234). The assay can be described thus: ^125I-human PDGF binding to transfected COS-1 cells.
For assay [2] the target is unchanged. In words: ^125I-human PDGF binding to transfected COS-1 cells (FIG. 8).
Assay [3] has the same target. The assay can be described thus: competition of ^125I-human PDGF binding to transfected COS-1 cells.
The target is the same in assay [4]. The assay can be described thus: competition of ^125I-human PDGF binding to COS-1 cells transfected with T11 cDNA; 50-100 fold excess.
Assay [5] has the same target. In words: radioligand binding to 32D transfectants.

The chains behind the UniProt entries cited, without tags or fusion partners. Where a name states a change or a piece, a line headed by the entry shows the natural chain unless it says otherwise.
UniProt P16234: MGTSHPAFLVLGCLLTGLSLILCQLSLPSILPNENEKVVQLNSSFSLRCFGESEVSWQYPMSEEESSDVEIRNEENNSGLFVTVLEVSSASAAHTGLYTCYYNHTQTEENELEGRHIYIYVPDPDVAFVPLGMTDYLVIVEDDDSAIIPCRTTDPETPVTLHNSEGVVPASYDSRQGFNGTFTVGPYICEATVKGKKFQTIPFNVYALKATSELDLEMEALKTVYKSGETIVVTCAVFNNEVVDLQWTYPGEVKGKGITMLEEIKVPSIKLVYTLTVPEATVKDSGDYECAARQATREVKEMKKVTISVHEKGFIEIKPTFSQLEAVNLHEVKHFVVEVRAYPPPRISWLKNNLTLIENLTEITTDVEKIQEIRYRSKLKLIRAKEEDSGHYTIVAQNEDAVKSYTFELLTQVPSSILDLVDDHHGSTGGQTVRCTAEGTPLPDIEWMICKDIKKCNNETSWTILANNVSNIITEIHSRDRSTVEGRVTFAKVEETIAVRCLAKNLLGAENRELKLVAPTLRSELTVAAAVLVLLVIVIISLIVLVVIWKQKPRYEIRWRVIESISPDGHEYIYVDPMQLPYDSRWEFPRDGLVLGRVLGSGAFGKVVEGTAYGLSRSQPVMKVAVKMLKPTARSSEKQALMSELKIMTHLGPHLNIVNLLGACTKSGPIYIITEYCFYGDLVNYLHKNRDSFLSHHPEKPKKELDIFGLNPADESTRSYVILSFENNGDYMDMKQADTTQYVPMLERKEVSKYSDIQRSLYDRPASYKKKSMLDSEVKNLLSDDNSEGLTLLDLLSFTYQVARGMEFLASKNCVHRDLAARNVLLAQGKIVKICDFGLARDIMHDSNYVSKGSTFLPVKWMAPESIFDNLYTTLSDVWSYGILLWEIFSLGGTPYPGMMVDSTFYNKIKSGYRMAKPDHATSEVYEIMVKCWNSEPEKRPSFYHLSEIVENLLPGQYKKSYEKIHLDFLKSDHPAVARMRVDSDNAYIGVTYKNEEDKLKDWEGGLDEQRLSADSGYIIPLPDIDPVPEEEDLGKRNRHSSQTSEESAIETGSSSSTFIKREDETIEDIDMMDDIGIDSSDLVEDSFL

These are yes or no findings as the source states them, for the method shown. Some entries that bind do so weakly or less than the wild type.

Regarding “human PDGF isolated from human platelets (predominantly AB heterodimer) (from UniProt P04085 87-196; P01127 82-190) (ligand)”, the binding result in assay [1] and in assay [2] was “binds” in each case.
In the case of “recombinant PDGF-AA (from UniProt P04085 87-211) (ligand)”, the binding result in assay [3] and in assay [4] was “binds” each time.

B1: recombinant PDGF-BB (ligand, UniProt P01127 82-190, looked up)
chain: SLGSLTIAEPAMIAECKTRTEVFEISRRLIDRTNANFLVWPPCVEVQRCSGCCNNRNVQCRPTQVQLRPVQVRKIEIVRKKPIFKKATVTLEDHLACKCETVAAARPVT
notes: Homodimer of B chains; also called BB homodimer
With B1, the binding result in assay [5], in assay [3] and in assay [4] was “binds” throughout.

Source of the values: patent US7427671 (US Dept. of Health and Human Services, dated 2008).
